The list shows a part of the results.

The subject of the experiment is T1, CTL2-GFP (C. trachomatis L2/434/Bu, GFP-expressing).
T1 construct: L2/434/Bu, GFP-expressing
Also noted: species or system HeLa; Intracellular C. trachomatis growth in HeLa cells, bulk GFP fluorescence relative to DMSO. The conditions noted are these: bulk GFP, single well; 28.5 h, 10 µM; inhibitor.
With `COc1ccc(C)cc1S(=O)(=O)Nc1cc(NCCCN2CCOCC2)c2occc2c1` [CBK067837C], the “% of control remaining” value is recorded as 92.3758%.

In the case of `c1ccc2[nH]c(SCCN3CCOCC3)nc2c1` [CBK262593], the “% of control remaining” value stood at 92.7613%.

On to `O=C(CSc1ccc2nnc(-c3ccc(F)cc3)n2n1)N1CCCC1` [CBK287519], for which the “% of control remaining” value came out at 127.798%.

Consider `O=C(O)c1cccnc1SCc1cc2c(cc1Cl)OCO2` [CBK287178], for which the “% of control remaining” value was found to be 101.614%.

For the molecule `COc1ccc(-c2ccc(OC3CCNCC3)cc2)c(OC)c1` [CBK093816T], the “% of control remaining” value was 88.4111%.

Consider `O=C1CN(Cc2nc(-c3cccc(C(F)(F)F)c3)no2)CCN1` [CBK306038], for which the “% of control remaining” value turned out to be 105.96%.

On to `N#Cc1c(NC(=O)CSc2nc(=O)cc(N)n2CCc2ccccc2)sc2c1CCCC2` [CBK293993], for which the “% of control remaining” value was determined as 148.379%.

In the case of `Cc1nc(CN2CCN(c3ccc4nnnn4n3)CC2)cs1` [CBK306056], the “% of control remaining” value is 118.004%.

In the case of `O=C(NCCO)NC(=S)c1ccccc1` [CBK267213], the “% of control remaining” value is 167.059%.

In the case of `O=C(CSCc1ccc(Br)cc1)Nc1ccc(S(=O)(=O)N2CCOCC2)cc1` [CBK267845], the “% of control remaining” value is listed as 113.788%.

As to `COCCNC(=O)c1cc2n(n1)C(C(F)(F)F)CC(c1ccccc1)N2` (centres unmarked) [CBK307610], the “% of control remaining” value was 111.628%.

`CC(C)(C)NC(=O)C1C2CCC3(CC(=O)c4cc(Cl)ccc4O3)C21` (centres unmarked) [CBK284963]: the “% of control remaining” value is 88.948%.

On to `Cc1ccccc1-c1ccc2n(c1=O)C[C@H]1C[C@@H]2CN(C(=O)CCC(=O)O)C1` [CBK289181], for which the “% of control remaining” value stood at 117.85%.

As to `O=c1[nH]c2ncc(-c3ccsc3)nc2n1Cc1ccccc1` [CBK064227], the “% of control remaining” value was 176.756%.

On to `CCC(=O)N(C)C1CCN(c2ncnc3ccccc23)CC1` [CBK304829], for which the “% of control remaining” value worked out at 97.2144%.

For the molecule `CC(=O)N1CC[C@H]2NC(=O)CNC(=O)C3(CCCC[C@H]2C1)CCN(Cc1ccc(Cl)cc1)CC3` [CBK292119], the “% of control remaining” value turned out to be 143.295%.

For the molecule `Cc1ccc(C(=O)CC(C(=O)O)c2c(C)[nH]c3ccccc23)cc1` (centres unmarked) [CBK269337], the “% of control remaining” value was determined as 156.318%.

With `CCN1CCC(NC(=O)CSc2nc3ccccc3n2CCOC)CC1` [CBK306100], the “% of control remaining” value came out at 85.3105%.

As to `COc1ccc(F)c(CN(CC(C)(C)CN)C(=O)Nc2ccccc2C(F)(F)F)c1` [CBK002412C], the “% of control remaining” value is 111.932%.

As for `CCCC(=O)Nc1nnc(-c2ccc(C)cc2C)o1` [CBK287700], the “% of control remaining” value came to 113.518%.

Regarding `Cc1cc(N2CCCC2)ccc1NC(=O)CCn1c(-c2cccs2)n[nH]c1=S` [CBK297883], the “% of control remaining” value stood at 129.766%.

Take `O=C(Nc1cccc2ccccc12)C1CCCN1S(=O)(=O)c1ccc(F)cc1` (centres unmarked) [CBK138924]: the “% of control remaining” value came to 91.4429%.

Turning to `CC(C)C(=O)N1CCC(c2nc3ccccn3c2NC(C)(C)C)CC1` [CBK284745], the “% of control remaining” value worked out at 165.725%.

For the molecule `CC1(C)CC(=O)N(C2CCCCC2)C(=O)C1C#N` (centres unmarked) [CBK009894], the “% of control remaining” value is 98.7474%.

`COC(=O)CCc1ccc(S(=O)(=O)N2CCCN(Cc3cccc(Br)c3)CC2)cc1` [CBK062981]: the “% of control remaining” value came out at 118.158%.

With `CCCCN(C=O)c1c(CC)nc2c(OCCOc3ccc(F)cc3)cccn12` [CBK147631], the “% of control remaining” value was found to be 153.723%.

With `O=C(Cn1ccnc1)N1CCCCC1c1nc2ccccc2[nH]1` (centres unmarked) [CBK283936], the “% of control remaining” value was determined as 104.816%.

For the molecule `COc1ccc(C(=O)N2CCC3(CCN(Cc4cc(=O)[nH]c(=O)[nH]4)C3)C2)cc1OC` (centres unmarked) [CBK132162], the “% of control remaining” value stood at 107.555%.

In the case of `Cc1[nH]c2ccccc2c1C(=O)C(=O)Nc1ccc(C#N)cc1` [CBK269896], the “% of control remaining” value stood at 155.092%.

For `Cc1cc(Cl)cc(C)c1NS(=O)(=O)c1ccc(N2CCCNCC2)c2ccccc12` [CBK004433C], the “% of control remaining” value is 67.4345%.

As to `COc1cccc(CN(Cc2ncc[nH]2)Cc2ccco2)c1` [CBK282496], the “% of control remaining” value was determined as 136.716%.

As for `O[C@@H]1C[C@@H](c2nc(-c3ccccn3)no2)N(Cc2ccccc2)C1` [CBK288900], the “% of control remaining” value is listed as 129.348%.

In the case of `CN1CCc2c(sc3nc(SCc4cccc5ccccc45)n(-c4ccccc4)c(=O)c23)C1` [CBK264556], the “% of control remaining” value worked out at 82.0182%.

As for `COc1ccc(OC)c(C2C(C(=O)c3ccc(C)cc3)=C(O)C(=O)N2Cc2cccnc2)c1` (centres unmarked) [CBK264492], the “% of control remaining” value stood at 94.1954%.

Turning to `Cc1cc(NC(=O)c2cc3ccccc3oc2=O)nc2c1c(=O)oc1ccccc12` [CBK287445], the “% of control remaining” value turned out to be 121.453%.

`Nc1ncnc2c1ncn2[C@@H]1O[C@H](CCl)[C@H](O)C1O` (some centres unmarked) [CBK201252]: the “% of control remaining” value came out at 96.9324%.

For the molecule `Cc1ccc(S(=O)(=O)Nc2ccc(C3(c4ccc(NS(=O)(=O)c5ccc(C)cc5)cc4)c4ccccc4-c4ccccc43)cc2)cc1` [CBK261154], the “% of control remaining” value is given as 97.5088%.

Regarding `O=C(/C=C/c1ccco1)Nc1cccc2c(NC(=O)/C=C/c3ccco3)cccc12` [CBK264974], the “% of control remaining” value stood at 110.362%.

Turning to `Cc1nn(CC(=O)NC(C)(C)C)c(=O)c2cc3sccc3n12` [CBK284021], the “% of control remaining” value stood at 132.373%.

For `Cc1cc(C2CCCCCN2S(=O)(=O)c2ccc3[nH]c(=O)[nH]c(=O)c3c2)no1` (centres unmarked) [CBK286404], the “% of control remaining” value was 122.808%.

As for `CCN(CC)C(=O)Cn1ncc2c3sc(C)cc3n(CC)c2c1=O` [CBK284167], the “% of control remaining” value worked out at 99.1383%.

`COCc1cn([C@H]2CO[C@H]3[C@@H]2OC[C@H]3OC(=O)Nc2ccc(C)cc2)nn1` [CBK289489]: the “% of control remaining” value was found to be 99.4794%.

For `CC(=O)Nc1ccccc1NC(=O)COc1ccc(Br)cc1C` [CBK265072], the “% of control remaining” value is listed as 129.632%.

As to `CN(C)c1cc(CNC(=O)c2cc3ccccc3oc2=O)ccn1` [CBK297917], the “% of control remaining” value is 125.775%.

For `CC(C)(CN1C(=O)c2ccccc2C1=O)C(O)C(=O)O` (centres unmarked) [CBK286582], the “% of control remaining” value was 145.241%.

For `O=C(Nc1ccc(-c2nc3ccccc3s2)c(O)c1)c1ccc(-c2ccccc2)cc1` [CBK263979], the “% of control remaining” value came to 100%.

Take `O=C(O)CCNS(=O)(=O)c1cccc(Cl)c1` [CBK267328]: the “% of control remaining” value was determined as 136.055%.

Regarding `CC(=O)N[C@H](C(=O)N1CC[C@H]2NC(=O)[C@@H](Cc3ccccc3)NC(=O)C3(C/C=C/C[C@H]2C1)CCOCC3)[C@@H](C)OC(C)(C)C` [CBK292203], the “% of control remaining” value is 119.532%.

In the case of `c1cnc(N2CCNCC2)c(OC2CCCCC2)n1` [CBK001837C], the “% of control remaining” value stood at 124.459%.

In the case of `O=[N+]([O-])c1nn(-c2ccccc2)[n+]([O-])c1Nc1ccc(Br)cc1` [CBK268504], the “% of control remaining” value was 87.7066%.

For `COC(=O)c1c(NC(=O)c2cnccn2)sc2c1CCC(C)C2` (centres unmarked) [CBK262654], the “% of control remaining” value was 100%.

Consider `O=C(O)CCCC(=O)Nc1cccc([N+](=O)[O-])c1` [CBK261530], for which the “% of control remaining” value is given as 109.805%.

For `CC(=O)NC(c1nccs1)C1CCCN(CC2CCCCC2)C1` (centres unmarked) [CBK285152], the “% of control remaining” value is recorded as 138.27%.

In the case of `Cc1noc(C)c1S(=O)(=O)NCCc1c[nH]c2ccccc12` [CBK067311], the “% of control remaining” value was found to be 112.056%.

With `Cc1ccc2ncc(C(=O)Nc3ccc(F)cc3F)c(=O)n2c1` [CBK287286], the “% of control remaining” value came out at 101.471%.

As to `COc1ccc([C@@]23CC[C@@H](NC(=O)c4ccc(Br)c(C)c4)C[C@@H]2N(C)CC3)cc1OC` [CBK076656T], the “% of control remaining” value is recorded as 117.896%.

As to `Cc1nc(C)c(C(=O)NCCN2CC(C)CC(C)C2)s1` (centres unmarked) [CBK283071], the “% of control remaining” value worked out at 134.644%.

As for `O=C(CC1CC2CCC1C2)N1CCC(O)(c2ccccn2)CC1` (centres unmarked) [CBK283833], the “% of control remaining” value was determined as 109.451%.

`OCCNc1ncnc2c1cnn2-c1ccccc1` [CBK077741C]: the “% of control remaining” value is 77.5059%.

For the molecule `Cc1ccn(CCC(=O)N2CCC[C@@H]3NC(=O)c4ccccc4OCC/C=C/C[C@@H]32)n1` [CBK292082], the “% of control remaining” value was 130.168%.

As to `N#Cc1cccc(Nc2cncc(-c3cccc(C(=O)NCCO)c3)n2)c1` [CBK037810], the “% of control remaining” value was 164.385%.

Take `O=C(CCS(=O)(=O)c1ccccc1)Nc1ccccc1N1CCNCC1` [CBK028285T]: the “% of control remaining” value turned out to be 98.8874%.

With `CC1(C)CCCC1NC(=O)NCc1cccc(-c2nnc[nH]2)c1` (centres unmarked) [CBK305236], the “% of control remaining” value came to 118.374%.

`Cc1cc(OCC2CCN(C(=O)OC(C)(C)C)CC2)ccc1Br` [CBK175091]: the “% of control remaining” value was 110.981%.

As to `CN(C)C1Cc2cccc3nc(S(C)(=O)=O)n(c23)C1` (centres unmarked) [CBK007942], the “% of control remaining” value is listed as 111.668%.

With `Cc1cc(Br)ccc1C(=O)N1CC(C(N)=O)CCC1C` (centres unmarked) [CBK305954], the “% of control remaining” value stood at 84.6191%.

`Cc1nn(C)cc1CN1CCCC1c1nc(N(C)C)ncc1-c1cccc(Cl)c1` (centres unmarked) [CBK286501]: the “% of control remaining” value worked out at 128.856%.

Take `COc1cccc(N2CCC(=O)N2)c1` [CBK087441]: the “% of control remaining” value came to 112.184%.

Consider `O=C(Nc1ccc(NC(=O)c2cc3ccccc3o2)cc1)c1ccc(-c2cccc([N+](=O)[O-])c2)o1` [CBK268579], for which the “% of control remaining” value worked out at 150.687%.

On to `Cc1cc(C)n(CC(=O)N2CCOC(c3ccccc3Cl)C2)n1` (centres unmarked) [CBK304927], for which the “% of control remaining” value was determined as 116.625%.

On to `Cc1nn(C)cc1-c1cncn1CCCN1CCCCC1` [CBK281493], for which the “% of control remaining” value is 108.581%.

For the molecule `Oc1cccc(Sc2cc(N3CCCC3)ncn2)c1` [CBK093749], the “% of control remaining” value turned out to be 127.835%.

For the molecule `Cc1cc2ccccc2n2c(SCC(=O)NCCc3ccccc3)nnc12` [CBK265682], the “% of control remaining” value is listed as 87.9315%.

On to `Cc1ccc2c(c1)c(NS(C)(=O)=O)nn2Cc1ccc(C#N)cc1` [CBK048643], for which the “% of control remaining” value was 120.263%.

With `CCCn1c(SCc2csc(CC(=O)Nc3ccccc3C)n2)n[nH]c1=O` [CBK296969], the “% of control remaining” value is 121.329%.

On to `O=C(CSc1nc(O)cc(O)n1)Nc1ccc(I)cc1` [CBK269467], for which the “% of control remaining” value is recorded as 117.635%.

Consider `CN(Cc1ccc(-c2ccc(S(C)(=O)=O)cc2)nc1)C1CCNCC1` [CBK163942], for which the “% of control remaining” value was found to be 102.624%.
